Assay results reported in PubChem BioAssay AID2711 (National Center for Advancing Translational Sciences (NCATS), 2010).
Inconclusive means that the source gave no clear call. Such entries were picked first, then a sample of the others. Potencies beside an inconclusive call are fits to weak or partial responses and may not hold up. Activity calls are given as the source filed them. Calls follow the shape of the dose curve; as a rule, active = well fitted inhibition curve with a large enough effect; inconclusive = small, poorly fitted or top-dose-only effect; inactive = no such curve, though single readings can be large or run the other way.
% is scaled to controls: 0 for no effect and ±100 for the full control effect; potency is read from the fitted curve at half-maximal effect.

Assay: Counterscreen for RECQ1 Inhibitors: ADP Fluorescence Polarization Displacement Assay; also: nearly all actives have a fitted effect of over 45% in size
Conditions: series mostly up to 91.9 µM; activity change, negative = inhibition: at the top concentration
Text: In order to gain further insight into the mode of action of the RECQ1 screening hits, we have profiled them in a set of miniaturized fluorescence polarization assays designed to report on compounds which competitively displace either co-substrate (ATP or DNA). The appropriate fluorescently-labeled probe was used: BODIPY Texas Red-labeled ADP was expected to be competed off by ATP-competitive inhibitors, while single-TAMRA labeled forked-duplex or short single-stranded DNA molecules served as probes for DNA-competitive compounds.
Three uL of reaction buffer (25 mM Tris-HCl (pH 8.0), 5 mM NaCl, 2 mM MgCl2, 1mM DTT, 0.01% Tween- 20, and 2.5 ug/ml poly(dI-dC), containing 300 nM RECQ1 and 500 nM BODIPY Texas Red-ADP (Invitrogen) were dispensed into a 1536-well Greiner black assay plate via solenoid-valve based nanoliter dispensers; 500 nM BODIPY Texas Red-ADP without RECQ1 protein served as a fully-displaced control. Compounds (23 nl each in columns 5-48) were transferred via a Kalypsys pintool equipped with a 1536-pin array. The plates were incubated for 15 min at room temperature and were then transferred into a ViewLux high-throughput CCD imager, where the endpoint fluorescence polarization was measured using 525 nm excitation and 598 nm emission protocol.
In the case of `Cc1cc2c(C(C)C)c(O)c(O)c(C=O)c2c(O)c1-c1c(C)cc2c(C(C)C)c(O)c(O)c(C=O)c2c1O`, the Potency was active: 14.1 µM. For `COc1ccc2c3c([nH]c2c1)C(C)=NCC3`, the Potency was active: 17.8 µM. With `CCN(CC)C(=O)N[C@@H]1C=C2c3cccc4[nH]cc(c34)C[C@H]2N(C)C1` the Potency was active: 22.4 µM. For `CN(C)[C@@H]1C(=O)C(C(N)=O)=C(O)[C@]2(O)C(=O)C3=C(O)c4c(O)cccc4[C@@](C)(O)[C@H]3[C@H](O)[C@@H]12`, the Potency was active: 44.7 µM. For `O=C1C=CC(=O)c2c(O)cccc21`, the Potency was inconclusive: 2 µM [inhibitor, full curve, poor fit]. For `C=C1C(=O)O[C@@H]2C[C@@H](C)[C@@H]3C=CC(=O)[C@@]3(C)[C@@H](OC(=O)CC(=O)O[C@H]3[C@@H]4C(=C)C(=O)O[C@@H]4C[C@@H](C)[C@@H]4C=CC(=O)[C@]43C)[C@H]12`, the “activity change, negative = inhibition” value was inactive: -3.89%. For `O=[N+]([O-])c1ccc(NCc2ccccc2)c2nonc12`, the Potency was active: 2.24 µM.
